Values from PubChem BioAssay AID504774 (Drosophila RNAi Screening Center, 2011)
The screen tested about 23,000 reagents; this is a random part of those that have a named target and a result. 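Values are quantile-normalised luminescence on an arbitrary scale; higher means more cells surviving MMS.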 Reagents against one gene are numbered here. Names joined by + are all predicted targets of the reagent. Not all columns of the deposit are shown.

Purpose: 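Knock-downs that shift viability of MMS-exposed cells relative to untreated ones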 (primary screen)
Cells: Drosophila Kc167 cells
Reagents: long dsRNA against Drosophila genes, about 0.25 µg dsRNA per well
Duration: about 6 days: 3 days knock-down, then 3 days with or without MMS
Challenge: methyl methanesulphonate 0.004% (w/v) for 3 days after knock-down
Measurement: 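Viability in wells given MMS, read as ATP luminescence, normalised by quantiles plate by plate and averaged across replicates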
Reading the numbers: mean viability with MMS and viability with MMS: higher = more surviving cells after MMS

| Gene | reagent | mean viability with MMS | viability with MMS, replicate 1 |
| --- | --- | --- | --- |
| CG11413 + CG4622 | 1 | 3.44e6 | 4.03e6 |
| gkt (GeneID 33530) | 1 | 3.64e6 | 4.08e6 |
| TrpA1 (GeneID 39015) | 1 | 3.47e6 | 3.91e6 |
| NimB1 (GeneID 34813) | 1 | 3.70e6 | 4.12e6 |
| IntS9 (GeneID 39763) | 1 | 3.43e6 | 3.94e6 |
| CG42795 (GeneID 41252) | 1 | 3.56e6 | 4.09e6 |
| CG42795 (GeneID 41252) | 2 | 3.49e6 | 3.95e6 |
| Taf12L (GeneID 33672) | 1 | 3.64e6 | 4.14e6 |
| cno (GeneID 40620) | 1 | 3.62e6 | 4.32e6 |
| cno (GeneID 40620) | 2 | 2.86e6 | 3.54e6 |
| cno (GeneID 40620) | 3 | 3.32e6 | 3.75e6 |
| Nedd4 (GeneID 39958) | 1 | 3.53e6 | 3.90e6 |
| Nedd4 (GeneID 39958) | 2 | 3.47e6 | 4.00e6 |
| Usp14 (GeneID 34387) | 1 | 3.70e6 | 4.33e6 |
| CG33969 + fbl | 1 | 3.59e6 | 4.08e6 |
| CG6867 (GeneID 32782) | 1 | 3.66e6 | 4.02e6 |
| Trax (GeneID 41871) | 1 | 3.35e6 | 3.81e6 |
| zip (GeneID 38001) | 1 | 3.61e6 | 4.22e6 |
| zip (GeneID 38001) | 2 | 3.58e6 | 4.13e6 |
| Nrt (GeneID 39873) | 1 | 3.52e6 | 3.96e6 |
| CG7707 (GeneID 39923) | 1 | 3.41e6 | 3.84e6 |
| CG31199 (GeneID 42456) | 1 | 3.60e6 | 4.12e6 |
| ssx (GeneID 31086) | 1 | 3.38e6 | 3.79e6 |
| Pburs (GeneID 34845) | 1 | 3.62e6 | 4.11e6 |
| CG12842 (retired record) (GeneID 35619) | 1 | 3.62e6 | 4.15e6 |
| CG7133 (GeneID 40449) | 1 | 3.54e6 | 3.99e6 |
| CG7912 (GeneID 43561) | 1 | 3.56e6 | 4.05e6 |
| CG11585 (GeneID 32365) | 1 | 3.81e6 | 4.26e6 |
| CG10301 (GeneID 42797) | 1 | 3.64e6 | 4.15e6 |
| Atac3 (GeneID 38055) | 1 | 3.80e6 | 4.30e6 |
| CG12541 (GeneID 31650) | 1 | 3.43e6 | 3.95e6 |
| CG12541 (GeneID 31650) | 2 | 3.74e6 | 4.05e6 |
| Npc1a (GeneID 34358) | 1 | 3.47e6 | 4.19e6 |
| CG13693 (GeneID 33187) | 1 | 3.43e6 | 3.96e6 |
| CG30265 (GeneID 37622) | 1 | 3.65e6 | 4.08e6 |
| CR42545 (GeneID 8674105) | 1 | 3.58e6 | 4.12e6 |
| ninaB (GeneID 41678) | 1 | 3.67e6 | 4.20e6 |
| CG12877 (GeneID 43333) | 1 | 3.43e6 | 3.80e6 |
| JMJD7 (GeneID 39514) | 1 | 1.90e6 | 4.10e6 |
| CG12848 (GeneID 50139) | 1 | 3.49e6 | 3.96e6 |
| Tdc2 (GeneID 246620) | 1 | 3.31e6 | 3.68e6 |
| CG2145 (GeneID 32027) | 1 | 3.71e6 | 4.26e6 |
| CG42304 + Snup | 1 | 3.31e6 | 3.74e6 |
| CG42304 + Snup | 2 | 3.33e6 | 3.79e6 |
| CG42304 + Snup | 3 | 3.14e6 | 3.79e6 |
| Axn (GeneID 43565) | 1 | 3.99e6 | 4.63e6 |

Just “mean viability with MMS” (3 entries from above):
ninaB (GeneID 41678): 3.67e6
CG12877 (GeneID 43333): 3.43e6
JMJD7 (GeneID 39514): 1.90e6
